In paper PMC11707698, “Structure of an ex vivoDrosophila TOM complex determined by single-particle cryoEM” (IUCrJ, 2025):

Target: T1, Drosophila Tom40 subunit fused to a C-terminal FLAG-HA epitope tag (D. melanogaster) (UniProt Q9U4L6)
T1 sequence: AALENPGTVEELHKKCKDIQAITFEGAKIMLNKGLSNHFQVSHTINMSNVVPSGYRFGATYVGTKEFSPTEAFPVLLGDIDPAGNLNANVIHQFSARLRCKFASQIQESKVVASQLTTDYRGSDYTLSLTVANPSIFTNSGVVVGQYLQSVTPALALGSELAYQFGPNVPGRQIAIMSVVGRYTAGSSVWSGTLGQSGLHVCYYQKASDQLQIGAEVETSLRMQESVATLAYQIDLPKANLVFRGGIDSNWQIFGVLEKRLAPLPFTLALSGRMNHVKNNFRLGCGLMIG
Experiment: affinity purification with mass spectrometry; Tom40-FLAG-HA held on anti-FLAG M2 beads from detergent-solubilised fly head membranes; 50 mM Tris-HCl pH 7.4, 150 mM NaCl; washes with 1 M urea and 500 mM NaCl; on-column exchange into non-ionic amphipol; elution with FLAG peptide; tryptic digest mass spectrometry of gel bands

binding: binds
Substance: Tom7 (endogenous Drosophila TOM subunit)

Results are given in words; binding and its absence hold for the method and conditions named. In cells and extracts the contact can be indirect. Here binding means that the protein was enriched with, or labelled near, the bait; the list need not be complete. Tags and fused reporters may be left off the sequences shown.
